By UniProt entry, the sequences of proteins in these tests, tags left out.
UniProt Q92551: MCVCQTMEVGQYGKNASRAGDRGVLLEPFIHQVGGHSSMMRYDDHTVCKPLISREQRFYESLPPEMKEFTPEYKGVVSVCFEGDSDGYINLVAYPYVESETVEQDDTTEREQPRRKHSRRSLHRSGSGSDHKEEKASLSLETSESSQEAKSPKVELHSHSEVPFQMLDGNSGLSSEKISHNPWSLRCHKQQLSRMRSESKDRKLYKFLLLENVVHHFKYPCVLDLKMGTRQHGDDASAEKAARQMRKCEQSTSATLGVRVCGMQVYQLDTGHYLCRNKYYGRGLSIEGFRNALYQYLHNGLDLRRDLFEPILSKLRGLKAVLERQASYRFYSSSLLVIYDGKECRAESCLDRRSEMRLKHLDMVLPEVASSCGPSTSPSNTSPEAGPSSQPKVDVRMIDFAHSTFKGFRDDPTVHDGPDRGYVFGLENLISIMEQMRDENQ

In article PMC11461180, “Interaction with IP6K1 supports pyrophosphorylation of substrate proteins by the inositol pyrophosphate 5-InsP7” (Bioscience Reports, 2024):

B1: endogenous AP3B1, the β subunit of the AP3 adaptor protein complex (protein, UniProt O00203 1-1094)
chain: MSSNSFPYNEQSGGGEATELGQEATSTISPSGAFGLFSSDLKKNEDLKQMLESNKDSAKLDAMKRIVGMIAKGKNASELFPAVVKNVASKNIEIKKLVYVYLVRYAEEQQDLALLSISTFQRALKDPNQLIRASALRVLSSIRVPIIVPIMMLAIKEASADLSPYVRKNAAHAIQKLYSLDPEQKEMLIEVIEKLLKDKSTLVAGSVVMAFEEVCPDRIDLIHKNYRKLCNLLVDVEEWGQVVIIHMLTRYARTQFVSPWKEGDELEDNGKNFYESDDDQKEKTDKKKKPYTMDPDHRLLIRNTKPLLQSRNAAVVMAVAQLYWHISPKSEAGIISKSLVRLLRSNREVQYIVLQNIATMSIQRKGMFEPYLKSFYVRSTDPTMIKTLKLEILTNLANEANISTLLREFQTYVKSQDKQFAAATIQTIGRCATNILEVTDTCLNGLVCLLSNRDEIVVAESVVVIKKLLQMQPAQHGEIIKHMAKLLDSITVPVARASILWLIGENCERVPKIAPDVLRKMAKSFTSEDDLVKLQILNLGAKLYLTNSKQTKLLTQYILNLGKYDQNYDIRDRTRFIRQLIVPNVKSGALSKYAKKIFLAQKPAPLLESPFKDRDHFQLGTLSHTLNIKATGYLELSNWPEVAPDPSVRNVEVIELAKEWTPAGKAKQENSAKKFYSESEEEEDSSDSSSDSESESGSESGEQGESGEEGDSNEDSSEDSSSEQDSESGRESGLENKRTAKRNSKAKGKSDSEDGEKENEKSKTSDSSNDESSSIEDSSSDSESESEPESESESRRVTKEKEKKTKQDRTPLTKDVSLLDLDDFNPVSTPVALPTPALSPSLMADLEGLHLSTSSSVISVSTPAFVPTKTHVLLHRMSGKGLAAHYFFPRQPCIFGDKMVSIQITLNNTTDRKIENIHIGEKKLPIGMKMHVFNPIDSLEPEGSITVSMGIDFCDSTQTASFQLCTKDDCFNVNIQPPVGELLLPVAMSEKDFKKEQGVLTGMNETSAVIIAAPQNFTPSVIFQKVVNVANVGAVPSGQDNIHRFAAKTVHSGSLMLVTVELKEGSTAQLIINTEKTVIGSVLLRELKPVLSQG
B2: endogenous TCOF (protein, UniProt Q13428 1-1488)
chain: MAEARKRRELLPLIYHHLLRAGYVRAAREVKEQSGQKCFLAQPVTLLDIYTHWQQTSELGRKRKAEEDAALQAKKTRVSDPISTSESSEEEEEAEAETAKATPRLASTNSSVLGADLPSSMKEKAKAETEKAGKTGNSMPHPATGKTVANLLSGKSPRKSAEPSANTTLVSETEEEGSVPAFGAAAKPGMVSAGQADSSSEDTSSSSDETDVEGKPSVKPAQVKASSVSTKESPARKAAPAPGKVGDVTPQVKGGALPPAKRAKKPEEESESSEEGSESEEEAPAGTRSQVKASEKILQVRAASAPAKGTPGKGATPAPPGKAGAVASQTKAGKPEEDSESSSEESSDSEEETPAAKALLQAKASGKTSQVGAASAPAKESPRKGAAPAPPGKTGPAVAKAQAGKREEDSQSSSEESDSEEEAPAQAKPSGKAPQVRAASAPAKESPRKGAAPAPPRKTGPAAAQVQVGKQEEDSRSSSEESDSDREALAAMNAAQVKPLGKSPQVKPASTMGMGPLGKGAGPVPPGKVGPATPSAQVGKWEEDSESSSEESSDSSDGEVPTAVAPAQEKSLGNILQAKPTSSPAKGPPQKAGPVAVQVKAEKPMDNSESSEESSDSADSEEAPAAMTAAQAKPALKIPQTKACPKKTNTTASAKVAPVRVGTQAPRKAGTATSPAGSSPAVAGGTQRPAEDSSSSEESDSEEEKTGLAVTVGQAKSVGKGLQVKAASVPVKGSLGQGTAPVLPGKTGPTVTQVKAEKQEDSESSEEESDSEEAAASPAQVKTSVKKTQAKANPAAARAPSAKGTISAPGKVVTAAAQAKQRSPSKVKPPVRNPQNSTVLARGPASVPSVGKAVATAAQAQTGPEEDSGSSEEESDSEEEAETLAQVKPSGKTHQIRAALAPAKESPRKGAAPTPPGKTGPSAAQAGKQDDSGSSSEESDSDGEAPAAVTSAQVIKPPLIFVDPNRSPAGPAATPAQAQAASTPRKARASESTARSSSSESEDEDVIPATQCLTPGIRTNVVTMPTAHPRIAPKASMAGASSSKESSRISDGKKQEGPATQVSKKNPASLPLTQAALKVLAQKASEAQPPVARTQPSSGVDSAVGTLPATSPQSTSVQAKGTNKLRKPKLPEVQQATKAPESSDDSEDSSDSSSGSEEDGEGPQGAKSAHTLGPTPSRTETLVEETAAESSEDDVVAPSQSLLSGYMTPGLTPANSQASKATPKLDSSPSVSSTLAAKDDPDGKQEAKPQQAAGMLSPKTGGKEAASGTTPQKSRKPKKGAGNPQASTLALQSNITQCLLGQPWPLNEAQVQASVVKVLTELLEQERKKVVDTTKESSRKGWESRKRKLSGDQPAARTPRSKKKKKLGAGEGGEASVSPEKTSTTSKGKAKRDKASGDVKEKKGKGSLGSQGAKDEPEEELQKGMGTVEGGDQSNPKSKKEKKKSDKRKKDKEKKEKKKKAKKASTKDSESPSQKKKKKKKKTAEQTV

Target: SFB-tagged IP6K1 (full length) (human) (UniProt Q92551)
Experiment: affinity purification with mass spectrometry; SFB-tagged bait expressed in HEK293T; lysis in NETN buffer (20 mM Tris-HCl pH 8.0, 100 mM NaCl, 1 mM EDTA, 0.5% Nonidet P-40) at 4°C; tandem purification on streptavidin-sepharose (biotin elution) and S-protein agarose; in-gel trypsin digest, LTQ Orbitrap; replicate sets; SFB-GFP as control

Row | Binder | binding
1 | B1 | binds
2 | B2 | binds

These are yes or no findings as the source states them, for the method shown. Binding seen in cells or lysates may run through a third protein. A yes stands for co-enrichment or nearness to the bait. Other partners may have been found.
